The target of the test is Arabidopsis basic leucine zipper (bZIP) transcription factor bZIP63 (Arabidopsis) (UniProt B9DGI8). Briefly: split reporter; BiFC (split YFP) in onion epidermal cells, particle bombardment, 18 h at 23 °C, fluorescence microscopy.

The record followed here is article PMC8541381.

These are yes or no findings as the source states them, for the method shown. Binding seen in cells or lysates may run through a third protein. Some results given as binding are weak or reduced against the parent protein; the word gives no strength.

B1: Arabidopsis basic leucine zipper (bZIP) transcription factor bZIP63 (protein, UniProt B9DGI8 1-314)
chain: MEKVFSDEEISGNHHWSVNGMTSLNRSASEWAFNRFIQESSAAADDGESTTACGVSVSSPPNVPVDSEEYRAFLKSKLNLACAAVAMKRGTFIKPQDTSGRSDNGGANESEQASLASSKATPMMSSAITSGSELSGDEEEADGETNMNPTNVKRVKRMLSNRESARRSRRRKQAHLSELETQVSQLRVENSKLMKGLTDVTQTFNDASVENRVLKANIETLRAKVKMAEETVKRLTGFNPMFHNMPQIVSTVSLPSETSNSPDTTSSQVTTPEIISSGNKGKALIGCKMNRTASMRRVESLEHLQKRIRSVGDQ
For the molecule B1, the binding result was “binds”.
